From PubChem BioAssay (NCATS)
This list was built around the results that the source calls inconclusive (neither active nor inactive); the mix of calls is not that of the screen. Potencies beside an inconclusive call are fits to weak or partial responses and may not hold up. Calls of active or inactive are those of the source. Calls come from the whole dose curve; as a rule, active = well fitted cell-killing curve with a large enough effect; inconclusive = small, poorly fitted or top-dose-only effect, or effect the other way; inactive = no such curve, though single readings can be large or run the other way.
Potency is the fitted concentration of half-maximal effect.

Assay: Quantitative High-Throughput drug screen in 47 multiple myeloma cell lines against the NCATS MIPE library collection: SKMM1_PLB cell viability assay (AID 1919863); note: nearly all actives have a fitted effect of over 35% in size; for viability: series mostly up to about 46 µM
Settings: SKMM1 myeloma viability, CellTiter-Glo ATP, 48 h; viability: active compounds read low
Description: PI: Beverly A. Mock Ph.D.
Laboratory of Cancer Biology and Genetics,
Center for Cancer Research, National Cancer Institute,
National Institute of Health, Bethesda, Maryland
Drug resistance and disease progression are common in multiple myeloma (MM) patients, underscoring the need for new therapeutic combinations. […] We hypothesized that effective combinations would reduce MYC expression and enhance p16 activity. […] These preclinical data identify potentially useful drug combinations for evaluation in drug-resistant MM and reveal potential mechanisms of combined drug sensitivity.
Described herein is the primary MIPE qHTS used to cherrypick compounds. Validated compounds were then further tested for potential synergistic activiy.
[1] Peat TJ, Gaikwad SM, Dubois W, Gyabaah-Kessie N, Zhang S, Gorjifard S, Phyo Z, Andres M, Hughitt VK, Simpson RM, Miller MA, Girvin AT, Taylor A, Williams D, D'Antonio N, Zhang Y, Rajagopalan A, Flietner E, Wilson K, Zhang X, Shinn P, Klumpp-Thomas C, McKnight C, Itkin Z, Chen L, Kazandijian D, Zhang J, Michalowski AM, Simmons JK, Keats J, Thomas CJ, Mock BA. Drug combinations identified by high-throughput screening promote cell cycle transition and upregulate Smad pathways in myeloma. Cancer Lett. 2023 Aug 1;568:216284. doi: 10.1016/j.canlet.2023.216284. Epub 2023 Jun 24. PMID: 37356470; PMCID: PMC10408729.
SEQUENCE No. (e.g., 1, 2, 3, etc.); […] (e.g., Cells, Incubation, Reagent, etc.); VALUE and DESCRIPTION.
1; Cells; 5 uL; white, solid bottom 1536-well Greiner assay plate.
2; Compounds; 23 nL; Kalypsis pin tool (Wako USA) equipped with a 1536-well pin head to transfer to the assay plates.
3; Incubation; 48 hours; 37C incubation.
4; Reagent;5uL; CellTiter Glo (Promega).
5; Detector; 425V; Luminescence; Viewlux PerkinElmer.
NOTES (numbers refer to Sequence numbers above)
1. The cell-based screening methods employed in this study were like those previously published. Briefly, the corresponding myeloma cell lines were screened in 1,536-well plates with 500 cells, 5-uL per well for inhibition of cell viability (assessed by measuring ATP levels with CellTiterGlo).
2. NCATS MIPE 4.0 library of approved and investigational drugs were added using the Kalypsis pin tool. Wells treated with DMSO only for 100% viability and media only for 0% viability were used as controls.
3. The assay plates were covered and incubated for 48 hours in a 37C, 5% CO2 incubator with controlled humidity.
4. After 48 hours, CellTilter-GloTM luminescent substrate mix (Promega) reagent was added to the assay plate and plates we incubated for 5 min at room temperature.
5. Signal was measured as median relative luminescence units on a ViewLux (PerkinElmer) multiplate reader.
[1] Heske CM, Davis MI, Baumgart JT, Wilson K, Gormally MV, Chen L, Zhang X, Ceribelli M, Duveau DY, Guha R, Ferrer M, Arnaldez FI, Ji J, Tran HL, Zhang Y, Mendoza A, Helman LJ, Thomas CJ. Matrix Screen Identifies Synergistic Combination of PARP Inhibitors and Nicotinamide Phosphoribosyltransferase (NAMPT) Inhibitors in Ewing Sarcoma. Clin Cancer Res. 2017 Dec 1;23(23):7301-7311. doi: 10.1158/1078-0432.CCR-17-1121. Epub 2017 Sep 12. PMID: 28899971; PMCID: PMC6636827.
With `COc1ccc2cc(-c3nc(-c4ccc(S(C)=O)cc4)[nH]c3-c3ccncc3)ccc2c1` (stereo not given) the viability was inactive: 106%. In the case of `CCN(CCO)CCCC(C)Nc1ccnc2cc(Cl)ccc12` (stereo not given), the Potency is reported as inconclusive: 46.9 nM [rising, full curve, poor fit]. With `COc1c(O)cc2c(c1O)[C@@H]1O[C@H](CO)[C@@H](O)[C@H](O)[C@H]1OC2=O` the Potency was inconclusive: 3 nM [cytotoxic, full curve, poor fit]. In the case of `CN1N=C(N)c2cn([C@@H]3O[C@H](COP(=O)(O)O)[C@@H](O)[C@@H]3O)c3ncnc1c23`, the Potency is reported as active: 1320 nM. With `CC1COc2c(N3CCN(C)CC3)c(F)cc3c(=O)c(C(=O)O)cn1c23` (stereo not given) the viability was inactive: 135%. With `Cc1ccc(C(C)(O)c2nc3ccccc3s2)c(C)c1` (stereo not given) the viability was inactive: 94%. For `Cc1ccn(-c2ccc(-c3ncco3)cc2)c(=O)c1-c1ccc2nc(N)ncc2c1`, the viability was inactive: 99.5%. In the case of `CCN(CC)CCOc1ccc(C(=C(Cl)c2ccccc2)c2ccccc2)cc1`, the Potency is reported as inconclusive: 1 nM. In the case of `COc1cc(C(=O)NC2CCN(C)CC2)ccc1Nc1ncc2c(n1)N(C1CCCC1)CCC(=O)N2C(C)C`, the Potency is reported as inconclusive: 33200 nM [cytotoxic, single point]. In the case of `CC(C)NCC(O)c1ccc(NS(C)(=O)=O)cc1` (stereo not given), the viability is reported as inactive: 159%. In the case of `COCCNCCCn1c(C(=O)CF)c(-c2ccc(C)cc2)c2c(N)ncnc21`, the Potency is reported as inconclusive: 4180 nM [cytotoxic, full curve, poor fit]. With `Cc1ccc2c(c1)C(=O)[C@]1(O)CCN(c3ccccc3)C1=N2` the Potency was inconclusive: 9.3 nM [cytotoxic, full curve, poor fit]. With `Clc1ccc(C(Cn2ccnc2)OCc2c(Cl)cccc2Cl)c(Cl)c1` (stereo not given) the Potency was active: 26400 nM. In the case of `Cc1cc(O)c2c(c1)C(=O)c1cccc(O)c1C2=O`, the Potency is reported as inconclusive: 3 nM [rising, full curve, poor fit]. In the case of `NC[C@@H]1O[C@@H](O[C@H]2[C@@H](O)[C@H](O[C@@H]3[C@@H](O)[C@@H](N)C[C@H](N)[C@H]3O[C@H]3O[C@H](CN)[C@@H](O)[C@@H](O)[C@H]3N)O[C@H]2CO)[C@H](N)[C@@H](O)[C@@H]1O`, the Potency is reported as inconclusive: 23.5 nM [cytotoxic, full curve, poor fit]. With `Cc1onc(-c2ccccc2)c1C(=O)N[C@@H]1C(=O)N2[C@@H](C(=O)O)C(C)(C)S[C@@H]12` the viability was inactive: 123%. With `COc1cc(NC(=O)c2ccc(-c3ccc(Cl)cc3)o2)cc(OC)c1` the viability was inactive: 155%. For `COc1ncnc(NS(=O)(=O)c2ccc(N)cc2)c1OC`, the viability was inactive: 128%. In the case of `CCn1cc(C(=O)O)c(=O)c2cc(F)c(N3CCNCC3)nc21`, the viability is reported as inactive: 102%. For `Nc1nnc(-c2cccc(Cl)c2Cl)c(N)n1`, the Potency was inconclusive: 3 nM [rising, full curve, poor fit]. With `COC(c1ccccc1)(c1ccccc1)[C@H](Oc1nc(C)cc(C)n1)C(=O)O` the Potency was inconclusive: 1050 nM [cytotoxic, full curve, poor fit]. With `N=C1SC(=Cc2ccc(-c3ccc4c(c3)C(=O)NC4=O)o2)C(=O)N1c1ccc(Br)cc1` the Potency was active: 3320 nM. In the case of `C[N+]1(C)[C@@H]2CC(OC(=O)[C@H](CO)c3ccccc3)C[C@H]1[C@H]1O[C@@H]12` (stereo not given in full), the Potency is reported as inconclusive: 13.2 nM [rising, full curve, poor fit]. In the case of `Cn1cc(-c2ccc3nnc(C(F)(F)c4ccc5ncccc5c4)n3n2)cn1`, the Potency is reported as inconclusive: 16600 nM [cytotoxic, partial curve, poor fit]. In the case of `CC1(C)S[C@H]2[C@H](NC(=O)[C@@H](N)c3ccc(O)cc3)C(=O)N2[C@@H]1C(=O)O`, the viability is reported as inconclusive: 105% [cytotoxic]. In the case of `O=C(NC1CCOCC1)c1ccc(-c2cc(-c3cn[nH]c3-c3ccccn3)ccn2)cc1`, the Potency is reported as inconclusive: 11.8 nM [cytotoxic, full curve, poor fit]. With `O=C(O)C1=CO[C@@H](O[C@@H]2O[C@H](CO)[C@H](O)[C@H](O)[C@H]2O)[C@@H]2C(CO)=CC[C@H]12` the viability was inactive: 118%. In the case of `CCn1cc(C(=O)O)c(=O)c2ccc(C)nc21`, the viability is reported as inactive: 130%. In the case of `Cc1c(C)n(Cc2ccc(-c3ccccc3C(=O)O)cc2)c2ccc(C(=O)N[C@@H](C)c3ccc([N+](=O)[O-])cc3)cc12`, the viability is reported as inactive: 123%. With `Cn1c(=O)c(Oc2ccc(F)cc2F)cc2cnc(NC3CCOCC3)nc21` the Potency was inconclusive: 1 nM [cytotoxic]. With `O=C(C=Cc1cccnc1)NCCCCC1CCN(C(=O)c2ccccc2)CC1` the Potency was active: 59 nM. For `Cc1nc(C(=O)NCC(=O)O)c(O)c2ccc(Oc3ccccc3)cc12`, the Potency was inconclusive: 118 nM [cytotoxic, full curve, poor fit]. For `COc1ccccc1N1CCN(CCN(C(=O)C2CCCCC2)c2ccccn2)CC1`, the viability was inactive: 126%. With `CC(C)(C)c1nc(-c2cccc(NS(=O)(=O)c3c(F)cccc3F)c2F)c(-c2ccnc(N)n2)s1` the Potency was inconclusive: 2640 nM [cytotoxic, partial curve, poor fit]. In the case of `c1coc(CNc2ncnc3nc[nH]c23)c1`, the Potency is reported as inconclusive: 18700 nM [cytotoxic, single point]. With `Cn1c(=O)c(F)c(Nc2ccc(I)cc2F)c2c(=O)n(C[C@@H](O)CO)cnc21` the Potency was inconclusive: 9350 nM [cytotoxic, partial curve, poor fit]. For `CN1C2CCC1CC(OC(=O)C(CO)c1ccccc1)C2` (stereo not given), the Potency was inconclusive: 8.3 nM [cytotoxic, full curve, poor fit]. For `c1ccc2c(-c3cnn4cc(-c5ccc(N6CCNCC6)cc5)cnc34)ccnc2c1`, the Potency was active: 9350 nM. For `CC[C@H]1OC(=O)[C@H](C)C(=O)[C@H](C)[C@@H](O[C@H]2O[C@H](C)C[C@H](N(C)C)[C@@H]2O)[C@](C)(OC)C[C@@H](C)C(=O)[C@H](C)[C@H]2N(CCCCn3cnc(-c4cccnc4)c3)C(=O)O[C@]12C`, the Potency was inconclusive: 23500 nM [cytotoxic, partial curve, poor fit]. With `Cc1cccc(-c2[nH]ncc2-c2ccc3ncccc3n2)n1` the viability was inactive: 121%.
